Molecules are shown by their SMILES. The list shows a part of the results. This data set is noisy: repeats of one test often differ as much as different tests do.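 The human kidney-derived cells carry a stably integrated construct of eight TEAD-binding elements driving luciferase, read by luminescence in a drug-repurposing library screen. A compound counts as a hit when its signal is more than five robust Z scores above the plate mean.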

Results on 33 compounds are retold here after the supplement of paper PMC10735217.

The test deals with HEK293A TEAD-LUC reporter. Briefly: TEAD-luciferase reporter activity (YAP activation), robust Z score vs plate; higher = stronger YAP/TEAD activation. To be noted: 24 h. In general terms: Reporter assays use an easily measured gene product as a stand-in for the process of interest.

Consider `O=C(N[C@@H](Cc1ccccc1)[C@@H](O)C(=O)N1C[C@@H](O)[C@@H](O)C1)c1cc2cc(Cl)ccc2[nH]1` [ingliforib], for which the TEAD-luciferase reporter activity by setting is: (compound concentration: 200 nM) inactive: 0.274; (compound concentration: 2 uM) inactive: 0.616; (compound concentration: 10 uM) inactive: -1.47.

On to `CNS(=O)(=O)c1cc(OC)c(OC)c(C(=O)NCC2CCCN2C)c1` (stereo unspecified) [sulverapride], for which the TEAD-luciferase reporter activity (compound concentration: 200 nM) was inactive: -1.12, the TEAD-luciferase reporter activity (compound concentration: 2 uM) was inactive: 0.0384 and the TEAD-luciferase reporter activity (compound concentration: 10 uM) is inactive: -0.673.

In the case of `CC(=O)c1ccc2c(c1)[C@H](NC(=O)c1ccc(F)cc1)[C@@H](O)C(C)(C)O2` [Carabersat], the TEAD-luciferase reporter activity is inactive: -1.52 (compound concentration: 200 nM), inactive: 0.112 (compound concentration: 2 uM) and inactive: -1.57 (compound concentration: 10 uM).

Take `CN[C@@H]1CCN(c2cc(NCC3CC3)nc(N)n2)C1`: the TEAD-luciferase reporter activity runs as follows: (compound concentration: 200 nM) inactive: 0.42; (compound concentration: 2 uM) inactive: -1.07; (compound concentration: 10 uM) inactive: 0.76.

On to `Cn1cc(C(=O)NCc2ccc(Cl)cc2)c(=O)c2cc(CN3CCOCC3)ccc21`, for which the TEAD-luciferase reporter activity is inactive: 0.796 (compound concentration: 200 nM), inactive: -0.596 (compound concentration: 2 uM) and inactive: -0.634 (compound concentration: 10 uM).

As for `Cc1nccn1-c1ccc(Sc2cccc(C3(C(N)=O)CCOCC3)c2)cc1`, the TEAD-luciferase reporter activity was inactive: -0.904 (compound concentration: 200 nM), inactive: -1.96 (compound concentration: 2 uM) and inactive: 0.346 (compound concentration: 10 uM).

As to `NC(=O)N1C(=O)/C(=C(\O)c2cccs2)c2cc(Cl)ccc21` [Tenidap sodium], the TEAD-luciferase reporter activity (compound concentration: 200 nM) is inactive: 0.838, the TEAD-luciferase reporter activity (compound concentration: 2 uM) was inactive: 2.9 and the TEAD-luciferase reporter activity (compound concentration: 10 uM) was inactive: -0.0624.

As to `Cc1ccncc1Nc1ncccc1C(=O)Nc1ccc(C2(C#N)CCCC2)cc1`, the TEAD-luciferase reporter activity is, setting by setting: (compound concentration: 200 nM) inactive: -0.972; (compound concentration: 2 uM) inactive: 0.0811; (compound concentration: 10 uM) inactive: -0.0374.

Take `CCn1ccc(=O)c(O)c1C`: the TEAD-luciferase reporter activity is, setting by setting: (compound concentration: 200 nM) inactive: -1.19; (compound concentration: 2 uM) inactive: -1.56; (compound concentration: 10 uM) inactive: -0.294.

On to `CC(=O)O[C@H]1C(=O)[C@@]2(C)[C@H]([C@H](OC(=O)c3ccccc3)[C@]3(O)C[C@H](OC(=O)[C@H](O)[C@@H](NC(=O)c4ccccc4)c4ccccc4)C(C)=C1C3(C)C)[C@]1(OC(C)=O)CO[C@@H]1C[C@@H]2O` [paclitaxel, Shanghai Fudan-Zhangjiang], for which the TEAD-luciferase reporter activity reads like this: (compound concentration: 200 nM) inactive: -1.37; (compound concentration: 2 uM) inactive: -0.597; (compound concentration: 10 uM) inactive: -2.4.

With `CO/N=C(/N)c1ccc(CNC(=O)[C@@H]2CCN2C(=O)C(O)c2cc(Cl)cc(OC(F)F)c2)cc1` (stereo partly specified), the TEAD-luciferase reporter activity reads like this: (compound concentration: 200 nM) inactive: 0.263; (compound concentration: 2 uM) inactive: 0.264; (compound concentration: 10 uM) inactive: -0.263.

As to `Cc1cc(O[C@@H](CCC(F)(F)F)c2ccc(C(=O)NCCC(=O)O)cc2)cc(C)c1-c1ccc(C(C)(C)C)cc1`, the TEAD-luciferase reporter activity is, setting by setting: (compound concentration: 200 nM) inactive: 0.667; (compound concentration: 2 uM) inactive: 1.18; (compound concentration: 10 uM) inactive: 0.981.

As to `Cc1nc(NS(=O)(=O)c2ccc(N)cc2)oc1C`, the TEAD-luciferase reporter activity is, setting by setting: (compound concentration: 200 nM) inactive: -1.88; (compound concentration: 2 uM) inactive: 0.201; (compound concentration: 10 uM) inactive: 2.4.

As for `CC(C)CNC(=O)[C@H]1C[C@@](F)(c2ccc(CN3CCCC3)c(F)c2)C1`, the TEAD-luciferase reporter activity by setting is: (compound concentration: 200 nM) inactive: -0.654; (compound concentration: 2 uM) inactive: 3.97; (compound concentration: 10 uM) inactive: 2.09.

Regarding `CC(C)(C)S(=O)(=O)c1cc2c(Nc3ccc4scnc4c3)ncnc2cc1OCCO` [RIP2 kinase inhibitor 1], the TEAD-luciferase reporter activity is, setting by setting: (compound concentration: 200 nM) inactive: 1.5; (compound concentration: 10 uM) inactive: 0.718.

With `CC(=O)[C@@]1(O)CC[C@H]2[C@@H]3C=C(Cl)C4=CC(=O)CC[C@]4(C)[C@H]3CC[C@@]21C` [Chlormadi], the TEAD-luciferase reporter activity runs as follows: (compound concentration: 200 nM) inactive: -0.698; (compound concentration: 2 uM) inactive: 0.511; (compound concentration: 10 uM) inactive: 1.3.

On to `CC(C)[C@H](NC(=O)Cn1c(-c2ccccc2)ncc(N)c1=O)C(=O)c1nnc(C(C)(C)C)o1` [Freselestat], for which the TEAD-luciferase reporter activity by setting is: (compound concentration: 200 nM) inactive: -1.92; (compound concentration: 2 uM) inactive: -0.233; (compound concentration: 10 uM) inactive: 1.96.

Regarding `CC(C)[C@](O)(c1ccc2cc(OC(F)F)c(OC(F)F)cc2c1)c1c[nH]nn1`, the TEAD-luciferase reporter activity was inactive: -0.328 (compound concentration: 200 nM), inactive: 0.514 (compound concentration: 2 uM) and inactive: -0.248 (compound concentration: 10 uM).

In the case of `Cc1cccn2c(=O)c(-c3nnn[nH]3)cnc12` [Pemirolast potassium], the TEAD-luciferase reporter activity runs as follows: (compound concentration: 200 nM) inactive: -0.444; (compound concentration: 2 uM) inactive: 1.4; (compound concentration: 10 uM) inactive: 1.25.

As to `O=c1n(CC2CO2)c(=O)n(CC2CO2)c(=O)n1CC1CO1` (stereo unspecified) [teroxirone], the TEAD-luciferase reporter activity runs as follows: (compound concentration: 200 nM) inactive: -0.092; (compound concentration: 2 uM) inactive: -0.488; (compound concentration: 10 uM) inactive: -0.211.

As for `c1cc(-c2nc3cc(-c4ccc5[nH]c(-c6ccncc6)nc5c4)ccc3[nH]2)ccn1` [Ridinilazole], the TEAD-luciferase reporter activity by setting is: (compound concentration: 200 nM) inactive: -1.94; (compound concentration: 2 uM) inactive: 2.9; (compound concentration: 10 uM) active: 5.67.

On to `CC(=O)NCCCCCC(=O)O` [zinc acexamate], for which the TEAD-luciferase reporter activity runs as follows: (compound concentration: 200 nM) inactive: 0.524; (compound concentration: 2 uM) inactive: -0.741; (compound concentration: 10 uM) inactive: 0.00565.

For `Clc1ccccc1OCCNC1CC1`, the TEAD-luciferase reporter activity (compound concentration: 200 nM) was inactive: 0.505, the TEAD-luciferase reporter activity (compound concentration: 2 uM) is inactive: -0.547 and the TEAD-luciferase reporter activity (compound concentration: 10 uM) is inactive: 0.00373.

In the case of `CCc1ccccc1CN1CCCC12Cc1ccccc1CNC2=O` (stereo unspecified), the TEAD-luciferase reporter activity (compound concentration: 200 nM) was inactive: -0.575 and the TEAD-luciferase reporter activity (compound concentration: 10 uM) is inactive: -1.95.

For `CCC(Br)(CC)C(=O)NC(=O)NC(C)=O`, the TEAD-luciferase reporter activity is inactive: 1.89 (compound concentration: 200 nM), inactive: -0.587 (compound concentration: 2 uM) and inactive: -1.32 (compound concentration: 10 uM).

Turning to `Cn1cc(-c2ccc3nnc(C(F)(F)c4ccc5ncccc5c4)n3n2)cn1`, the TEAD-luciferase reporter activity is inactive: -0.257 (compound concentration: 200 nM), inactive: -1.08 (compound concentration: 2 uM) and inactive: 3.42 (compound concentration: 10 uM).

For the compound `CN(C)C(=O)c1cc2cnc(Nc3ccc(N4CCNCC4)cn3)nc2n1C1CCCC1` [ribociclib], the TEAD-luciferase reporter activity is, setting by setting: (compound concentration: 200 nM) inactive: -1.18; (compound concentration: 2 uM) inactive: 0.531; (compound concentration: 10 uM) inactive: 1.49.

For the compound `CC1(C)S[C@@H]2[C@H](NC(=O)[C@H](NC(=O)c3cnc4cccnc4c3O)c3ccccc3)C(=O)N2[C@H]1C(=O)[O-]`, the TEAD-luciferase reporter activity was inactive: -0.378 (compound concentration: 200 nM), inactive: 0.558 (compound concentration: 2 uM) and inactive: -1.64 (compound concentration: 10 uM).

`C=C(F)c1sc(CNCCCNc2cc(=O)c3ccccc3[nH]2)c(C)c1Br` [bederocin]: the TEAD-luciferase reporter activity reads like this: (compound concentration: 200 nM) active: 7.25; (compound concentration: 2 uM) inactive: -0.876; (compound concentration: 10 uM) active: 5.13.

For the compound `CN1CCN(c2cc3c(nn2)Oc2ccccc2N3C)CC1` [Pipofezine], the TEAD-luciferase reporter activity is, setting by setting: (compound concentration: 200 nM) inactive: -0.648; (compound concentration: 10 uM) inactive: -1.41.

With `CC1CC(=O)NN=C1c1ccc2c(NCc3ccccc3)ncnc2c1` (stereo unspecified), the TEAD-luciferase reporter activity by setting is: (compound concentration: 200 nM) inactive: -1.96; (compound concentration: 2 uM) inactive: -0.722; (compound concentration: 10 uM) inactive: -1.32.

In the case of `O=C(Nc1cc(F)c(F)c(F)c1)c1ccc(F)c(S(=O)(=O)N2CCC(O)C(F)C2)c1` (stereo unspecified), the TEAD-luciferase reporter activity (compound concentration: 200 nM) is inactive: 2.05, the TEAD-luciferase reporter activity (compound concentration: 2 uM) is inactive: -1.25 and the TEAD-luciferase reporter activity (compound concentration: 10 uM) was inactive: 3.14.

As for `CN(C)C1CC(c2c[nH]c3ccc(C[C@H]4COC(=O)N4)cc23)C1` (stereo partly specified), the TEAD-luciferase reporter activity reads like this: (compound concentration: 200 nM) inactive: -0.308; (compound concentration: 2 uM) inactive: -0.92; (compound concentration: 10 uM) inactive: 1.52.
